Experimental data: PubChem BioAssay AID1508588 (Peter MacCallum Cancer Centre, 2020)

Purpose: 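Genome-wide search for knock-downs that heighten vemurafenib action in melanoma cells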 (primary screen)
Cell system: human WM266.4 melanoma cells (BRAF V600 mutant)
Reagents: siRNA pool against human genes, 40 nM
Duration: 96 h from transfection to read-out
Conditions: vemurafenib 300 nM (about IC25), added 48 h after transfection, for 48 h; comparison arm got DMSO vehicle only
Measured: 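Ratios to non-targeting siRNA for cell gain, counted as DAPI nuclei after minus before drug and averaged over two replicates, and for absorbance-read medium lactate per cell; both binned into fold-change classes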
Reading the numbers: cell gain with vemurafenib: higher = more cell gain than with non-targeting siRNA; lactate per cell with vemurafenib: higher = more lactate made per cell
Rule for the call: 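Enhancement is called by pairing each knock-down's vehicle-arm and drug-arm fold-change classes for viability or glycolysis; which class combinations qualify is not given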
Meaning of the calls: active = enhances vemurafenib effect; inactive = no enhancement seen
The whole screen tested about 18,000 reagents; this is a random part of them. 790 of all reagents (4.4%) were called active. 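Calls rest on a combination of fold-change classes in drug and vehicle arms, not all shown here.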 A reagent listed more than once was tested more than once; the source does not tell the runs apart. No sequences are given here.

PSEN2 (presenilin 2)
- cell gain with vemurafenib: 0.25
- lactate per cell with vemurafenib: 0.57
- Outcome: inactive

LHX5 (LIM homeobox 5)
- cell gain with vemurafenib: 1.03
- lactate per cell with vemurafenib: 0.62
- Outcome: inactive

LIMCH1 (LIM and calponin homology domains 1)
- cell gain with vemurafenib: 1.2
- lactate per cell with vemurafenib: 1.02
- Outcome: inactive

GARIN6 (golgi associated RAB2 interactor family member 6)
- cell gain with vemurafenib: 1.11
- lactate per cell with vemurafenib: 0.62
- Outcome: inactive

AACS (acetoacetyl-CoA synthetase)
- cell gain with vemurafenib: 0.6
- lactate per cell with vemurafenib: 0.84
- Outcome: inactive

PRPF31 (pre-mRNA processing factor 31)
- cell gain with vemurafenib: 0.02
- lactate per cell with vemurafenib: 1.63
- Outcome: inactive

NSD3 (nuclear receptor binding SET domain protein 3)
- cell gain with vemurafenib: 0.98
- lactate per cell with vemurafenib: 1.02
- Outcome: inactive

RNF130 (ring finger protein 130)
- cell gain with vemurafenib: 1.04
- lactate per cell with vemurafenib: 0.72
- Outcome: active

RNF130 (ring finger protein 130)
- cell gain with vemurafenib: 0.45
- lactate per cell with vemurafenib: 0.6
- Outcome: active

SNIP1 (Smad nuclear interacting protein 1)
- cell gain with vemurafenib: 0.38
- lactate per cell with vemurafenib: 1.46
- Outcome: inactive

DPP4 (dipeptidyl peptidase 4)
- cell gain with vemurafenib: 0.61
- lactate per cell with vemurafenib: 1.07
- Outcome: inactive

SRSF12 (serine and arginine rich splicing factor 12)
- cell gain with vemurafenib: 0.7
- lactate per cell with vemurafenib: 0.92
- Outcome: inactive

CILP2 (cartilage intermediate layer protein 2)
- cell gain with vemurafenib: 0.08
- lactate per cell with vemurafenib: 2.99
- Outcome: inactive

CALHM6 (calcium homeostasis modulator family member 6)
- cell gain with vemurafenib: 0.59
- lactate per cell with vemurafenib: 0.78
- Outcome: inactive

EPRS1 (glutamyl-prolyl-tRNA synthetase 1)
- cell gain with vemurafenib: 0.64
- lactate per cell with vemurafenib: 1.21
- Outcome: inactive

Part of the list above, showing only “lactate per cell with vemurafenib”.
SRSF12 (serine and arginine rich splicing factor 12): 0.92
CILP2 (cartilage intermediate layer protein 2): 2.99
CALHM6 (calcium homeostasis modulator family member 6): 0.78
EPRS1 (glutamyl-prolyl-tRNA synthetase 1): 1.21

Further results:
MTFR1 (mitochondrial fission regulator 1)
- cell gain with vemurafenib: 1.2
- lactate per cell with vemurafenib: 0.46
- Outcome: inactive

AMT (aminomethyltransferase)
- cell gain with vemurafenib: 0.49
- lactate per cell with vemurafenib: 0.34
- Outcome: inactive

WFDC9 (WAP four-disulfide core domain 9)
- cell gain with vemurafenib: 0.79
- lactate per cell with vemurafenib: 0.74
- Outcome: inactive

MSI2 (musashi RNA binding protein 2)
- cell gain with vemurafenib: 0.44
- lactate per cell with vemurafenib: 1.51
- Outcome: inactive

MUCL3 (mucin like 3)
- cell gain with vemurafenib: -0.04
- lactate per cell with vemurafenib: 1.55
- Outcome: inactive

GJD4 (gap junction protein delta 4)
- cell gain with vemurafenib: 0.68
- lactate per cell with vemurafenib: 0.61
- Outcome: inactive

DPP7 (dipeptidyl peptidase 7)
- cell gain with vemurafenib: 0.02
- lactate per cell with vemurafenib: 1.27
- Outcome: active

SYNGAP1 (synaptic Ras GTPase activating protein 1)
- cell gain with vemurafenib: 0.15
- lactate per cell with vemurafenib: 1.38
- Outcome: active

GSE1 (Gse1 coiled-coil protein)
- cell gain with vemurafenib: 0.77
- lactate per cell with vemurafenib: 1.27
- Outcome: inactive

RPS16 (ribosomal protein S16)
- cell gain with vemurafenib: -0.07
- lactate per cell with vemurafenib: 2.53
- Outcome: inactive

PI4KB (phosphatidylinositol 4-kinase beta)
- cell gain with vemurafenib: 0.52
- lactate per cell with vemurafenib: 0.62
- Outcome: inactive

DSC2 (desmocollin 2)
- cell gain with vemurafenib: 1
- lactate per cell with vemurafenib: 0.32
- Outcome: inactive

ESRRA (estrogen related receptor alpha)
- cell gain with vemurafenib: 0.42
- lactate per cell with vemurafenib: 1.29
- Outcome: inactive

SIX1 (SIX homeobox 1)
- cell gain with vemurafenib: 0.95
- lactate per cell with vemurafenib: 0.42
- Outcome: inactive

H1-8 (H1.8 linker histone)
- cell gain with vemurafenib: 0.26
- lactate per cell with vemurafenib: 1.17
- Outcome: inactive

IFNA6 (interferon alpha 6)
- cell gain with vemurafenib: -0.04
- lactate per cell with vemurafenib: 0.52
- Outcome: inactive

SEMA7A (semaphorin 7A (JohnMiltonHagen blood group))
- cell gain with vemurafenib: 0.91
- lactate per cell with vemurafenib: 0.8
- Outcome: inactive

SPRR2G (small proline rich protein 2G)
- cell gain with vemurafenib: 0.81
- lactate per cell with vemurafenib: 0.82
- Outcome: inactive

PGBDF (plakoglobin binding and degradation factor)
- cell gain with vemurafenib: 0.41
- lactate per cell with vemurafenib: 0.91
- Outcome: inactive

GGA1
- cell gain with vemurafenib: 0.44
- lactate per cell with vemurafenib: 1.02
- Outcome: inactive

PATL1 (PAT1 homolog 1, processing body mRNA decay factor)
- cell gain with vemurafenib: 0.15
- lactate per cell with vemurafenib: 1.01
- Outcome: active

CMTM2 (CKLF like MARVEL transmembrane domain containing 2)
- cell gain with vemurafenib: 0.82
- lactate per cell with vemurafenib: 0.5
- Outcome: inactive

MARCKSL1 (MARCKS like 1)
- cell gain with vemurafenib: 0.37
- lactate per cell with vemurafenib: 1.12
- Outcome: inactive

NPAT (nuclear protein, coactivator of histone transcription)
- cell gain with vemurafenib: 0.52
- lactate per cell with vemurafenib: 1.75
- Outcome: inactive

PPIA (peptidylprolyl isomerase A)
- cell gain with vemurafenib: 0.63
- lactate per cell with vemurafenib: 0.32
- Outcome: active
